Article PMC6692620

Molecular target: PI3K p85 (p85 regulatory subunit of phosphoinositide 3-kinase) (human (endogenous in A549))
Test: co-IP; A549 cell lysates (RIPA buffer), pre-cleared with Protein A Sepharose; ENKUR antibody, PI3K p85 antibody or normal rabbit IgG overnight at 4°C, harvested with protein A Sepharose, western blot; done in both directions

B1: ENKUR (Enkurin) (protein, UniProt Q8TC29 1-256)
chain: MDPTCSSECIYNLIPSDLKEPPQPPRYISIFKATVKDDMQKAKTAMKTMGPAKVEVPSPKDFLKKHSKEKTLPPKKNFDRNVPKKPAVPLKTDHPVMGIQSGKNFINTNAADIIMGVAKKPKPIYVDKRTGDKHDLEPSGLVPKYINKKDYGVTPEYICKRNEEIKKAQEDYDRYIQENLKKAAMKRLSDEEREAVLQGLKKNWEEVHKEFQSLSVFIDSIPKKIRKQRLEEEMKQLEHDIGIIEKHKIIYIANNA
For B1, the binding was “binds”.

No constants are given. Whether binding was seen depends on the method and setting. Binding seen in cells or lysates may run through a third protein. Binding calls can cover weak binding; strength is not graded here.
